Laboratory results: the supplement of paper PMC10727501
This is one part of the list. This data set is noisy: repeats of one test often differ as much as different tests do.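 Free-swimming zebrafish larvae were scored for O-bend response probability to dark flashes (naive: first five; training: remaining flashes of four 60-flash blocks; test: later 60-flash block) and for turning toward alternating leftward/rightward LED motion (OMR). Six treated larvae were compared with sixty 0.1% DMSO controls; |SSMD|≥2 defined a hit.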

Experiments:
Conditions in all cases: 10 µM; pre-incubation: 30-90 min
[1] = tested on: Danio rerio larvae (5 dpf, TLF); test: OMR-Perf (SSMD vs DMSO vehicle); higher = higher than vehicle (e.g. higher dark-flash O-bend response probability, or better optomotor performance)
[2] = tested on: Danio rerio larvae (5 dpf, TLF); test: Prob-Test (SSMD vs DMSO vehicle); higher = higher than vehicle (e.g. higher dark-flash O-bend response probability, or better optomotor performance)
[3] = tested on: Danio rerio larvae (5 dpf, TLF); test: Prob-Naive (SSMD vs DMSO vehicle); higher = higher than vehicle (e.g. higher dark-flash O-bend response probability, or better optomotor performance)
[4] = tested on: Danio rerio larvae (5 dpf, TLF); test: Prob-Train (SSMD vs DMSO vehicle); higher = higher than vehicle (e.g. higher dark-flash O-bend response probability, or better optomotor performance)

| SMILES | OMR-Perf [1] | Prob-Test [2] | Prob-Naive [3] | Prob-Train [4] |
| --- | --- | --- | --- | --- |
| COc1ccc(CNc2nc(N3CCC[C@H]3CO)ncc2C(=O)NCc2ncccn2)cc1Cl [Avanafil] | 0.855 | 0.24 | -0.293 | 0.426 |
| COc1cc2ncc(-c3ccccc3)nc2cc1OC [Tyrphostin AG 1296] | 0.131 | -1.07 | -2.36 | -2.02 |
| COc1ccc2cc1Oc1ccc(cc1)C[C@@H]1c3c(cc4c(c3Oc3cc5c(cc3OC)CCN(C)[C@H]5C2)OCO4)CCN1C [Cepharanthine] | -0.604 | 0.0509 | -0.0588 | -1.17 |
| CC(C)n1c(/C=C/[C@@H](O)C[C@@H](O)CC(=O)[O-])c(-c2ccc(F)cc2)c2ccccc21.[Na+] [Fluvastatin Sodium] | -0.132 | -0.519 | 0.214 | -0.306 |
| CC(C)(C(=O)O)c1ccc(C(O)CCCN2CCC(C(O)(c3ccccc3)c3ccccc3)CC2)cc1.Cl (configuration not stated) [Fexofenadine HCl] | -0.542 | -0.876 | -0.779 | -2.05 |
| Cc1nn(-c2ccccc2)c(C)c1/C=N/N1CCN(Cc2ccccc2)CC1 | -0.622 | -1.39 | -0.387 | -1.36 |
| Cc1nc2n(c(=O)c1CCN1CCC(c3noc4cc(F)ccc34)CC1)CCCC2 [Risperidone] | -0.675 | -1.33 | -0.521 | -0.662 |
| CC1(C)CCC(c2ccc(Cl)cc2)=C(CN2CCN(c3ccc(C(=O)NS(=O)(=O)c4ccc(N[C@H](CCN5CCOCC5)CSc5ccccc5)c(S(=O)(=O)C(F)(F)F)c4)cc3)CC2)C1 [ABT-263 (Navitoclax)] | -0.11 | 0.313 | -0.571 | 0.318 |
| CC(=O)O[C@H]1C(=O)[C@@]2(C)C([C@H](OC(=O)c3ccccc3)[C@]3(O)C[C@H](OC(=O)[C@H](O)[C@@H](NC(=O)c4ccccc4)c4ccccc4)C(C)=C1C3(C)C)[C@]1(OC(C)=O)CO[C@@H]1C[C@H]2O (some centres not stated) [Paclitaxel] | 0.144 | -0.323 | -0.15 | 0.104 |
| CCOc1cc2ncc(C#N)c(Nc3ccc(F)c(Cl)c3)c2cc1NC(=O)/C=C/CN(C)C [Pelitinib (EKB-569)] | -0.157 | 0.249 | -0.043 | -0.698 |
| CN(C)CCOc1ccc(-c2nc(-c3ccncc3)c(-c3ccc4c(c3)CC/C4=N/O)[nH]2)cc1 | -0.145 | 0.215 | -0.169 | -0.0136 |
| COc1ccc(-c2ccc3c(N4CCOCC4)nc(N4C[C@@H](C)O[C@@H](C)C4)nc3n2)cc1CO | 0.114 | 0.322 | -0.0595 | 0.218 |
| O=C([O-])Cc1ccccc1Nc1c(Cl)cccc1Cl.[Na+] [Diclofenac Sodium] | 0.378 | 0.595 | 0.421 | 0.0266 |
| CCCCc1nc(Cl)c(CO)n1Cc1ccc(-c2ccccc2-c2nnn[nH]2)cc1.[K] [Losartan Potassium (DuP 753)] | -0.467 | -0.274 | 0.1 | -0.456 |
| CC(=O)O[C@H]1CC[C@@]2(C)C(=CC[C@H]3[C@H]2CC[C@]2(C)C(c4cccnc4)=CC[C@@H]32)C1 [Abiraterone Acetate] | -0.0948 | -1.51 | -0.172 | -1.72 |
| NC(=O)c1ncn([C@@H]2O[C@@H](CO)[C@@H](O)[C@H]2O)c1N [Acadesine] | -0.464 | -0.165 | -0.0595 | -0.0741 |
| CC1CNc2c(cccc2S(=O)(=O)N[C@@H](CCCNC(=N)N)C(=O)N2CC[C@@H](C)C[C@H]2C(=O)O)C1 (some centres not stated) [Argatroban] | -0.0177 | 0.11 | -0.0225 | 0.352 |
| CC(=O)SCC(Cc1ccccc1)C(=O)NCC(=O)OCc1ccccc1 (configuration not stated) [Racecadotril] | -0.257 | 0.627 | -0.643 | -0.444 |
| COC(=O)[C@H](Cc1ccccc1)NC(=O)[C@@H](N)CC(=O)O [Aspartame] | -0.0179 | 0.282 | -0.286 | 0.325 |
| COc1cc2c(cc1O)CC[C@@H]1[C@H]2CC[C@]2(C)[C@H](O)CC[C@@H]12 [2-Methoxyestradiol (2-MeOE2)] | -0.0662 | 0.144 | 0.0292 | -0.176 |
| CC(C)(CO)c1cc2cc(NC(=O)C3(c4ccc5c(c4)OC(F)(F)O5)CC3)c(F)cc2n1C[C@@H](O)CO | -0.616 | 0.463 | 0.0404 | 0.439 |
| CC(C[N+](C)(C)C)OC(N)=O.[Cl-] (configuration not stated) [Bethanechol chloride] | 0.283 | -0.395 | -0.354 | -0.842 |

Single records (already shown). Values in the order: OMR-Perf [1]	Prob-Test [2]	Prob-Naive [3]	Prob-Train [4]
CC(C[N+](C)(C)C)OC(N)=O.[Cl-] (configuration not stated) [Bethanechol chloride] in the list: 0.283	-0.395	-0.354	-0.842
CC1CNc2c(cccc2S(=O)(=O)N[C@@H](CCCNC(=N)N)C(=O)N2CC[C@@H](C)C[C@H]2C(=O)O)C1 (some centres not stated) [Argatroban] in the list: -0.0177	0.11	-0.0225	0.352

Following part:

| SMILES | OMR-Perf [1] | Prob-Test [2] | Prob-Naive [3] | Prob-Train [4] |
| --- | --- | --- | --- | --- |
| Cc1cc(C)nc(NS(=O)(=O)c2ccc(NC(=S)NC(=O)COc3ccc(Br)cc3Cl)cc2)n1 | -0.587 | -0.227 | -0.396 | -0.631 |
| OC(Cn1cncn1)(Cn1cncn1)c1ccc(F)cc1F [Fluconazole] | 0.188 | 0.118 | 0.549 | 0.788 |
| CCCOc1ccc(C(=O)OCCN(CC)CC)cc1N.Cl [Proparacaine HCl] | -0.159 | -0.189 | 0.42 | 0.307 |
| N[C@@H](CC(=O)N1CCn2c(nnc2C(F)(F)F)C1)Cc1cc(F)c(F)cc1F.O.O=P(=O)OO.[HH] [Sitagliptin phosphate monohydrate] | -0.562 | 0.411 | 0.464 | 0.412 |
| O=C(O)c1cccnc1 [Nicotinic Acid] | 0.195 | 0.0789 | -0.0365 | -0.182 |
| COc1ncnc(NS(=O)(=O)c2ccc(N)cc2)c1OC [Sulfadoxine (Sulphadoxine)] | 0.166 | 0.138 | 0.131 | 0.456 |
| O=c1[nH]c(=O)n([C@@H]2C[C@H](O)[C@@H](CO)O2)cc1F [Floxuridine] | 0.238 | 0.00987 | -0.468 | 0.206 |
| OCCN(CCO)c1nc(N2CCCCC2)c2nc(N(CCO)CCO)nc(N3CCCCC3)c2n1 [Dipyridamole] | -0.213 | -0.196 | 0.302 | 0.0685 |
| Cl.Fc1ccc([C@@H]2CCNC[C@H]2COc2ccc3c(c2)OCO3)cc1 [Paroxetine HCl] | -0.0116 | -0.277 | 0.389 | -1.28 |
| CCCCNc1ccc(C(=O)OCCN(C)C)cc1.Cl [Tetracaine HCl] | 0.678 | 0.0826 | 0.536 | 0.0485 |
| CS(=O)(=O)O.Cc1ccc(NC(=O)c2ccc(CN3CCN(C)CC3)cc2)cc1Nc1nccc(-c2cccnc2)n1 [Imatinib Mesylate (STI571)] | 0.88 | -0.479 | 0.147 | -0.389 |
| CO[C@H]1/C=C/O[C@@]2(C)Oc3c(C)c(O)c4c(O)c(c(/C=N/N5CCN(C6CCCC6)CC5)c(O)c4c3C2=O)NC(=O)/C(C)=C/C=C/[C@H](C)[C@H](O)[C@@H](C)[C@@H](O)[C@@H](C)[C@H](OC(C)=O)[C@@H]1C [Rifapentine] | -0.27 | 0.657 | 0.493 | 0.704 |
| NC[C@H]1O[C@H](O[C@H]2[C@@H](O)[C@@H](O[C@H]3O[C@H](CO)[C@@H](O)[C@H](N)[C@@H]3O)[C@H](N)C[C@@H]2N)[C@@H](N)C[C@@H]1O [Tobramycin] | -0.203 | -0.182 | -0.0745 | -0.624 |
| CCN(CC)CCCC(C)Nc1nc(C)cc(Nc2ccc3nc(C)cc(N)c3c2)n1.Cl.Cl.Cl (configuration not stated) | -0.164 | 0.19 | -0.162 | -0.537 |
| FC(F)c1nc2ccccc2n1-c1nc(N2CCOCC2)nc(N2CCOCC2)n1 | 0.151 | -1.45 | -1.75 | -2.53 |
| Cc1ccc(-c2c(-c3nn(C)c4ncnc(N5CC[C@H](N6CCCCC6)C5)c34)cnn2C)cc1 | 0.368 | -0.47 | -0.263 | -0.306 |
| COc1ccc2[nH]cc(CCNC(C)=O)c2c1 [Melatonin] | -0.324 | -0.848 | -0.73 | -2.42 |
| CC(C(=O)O)c1cccc(Oc2ccccc2)c1 (configuration not stated) [Fenoprofen calcium hydrate] | -0.612 | -0.243 | -0.388 | -0.384 |
| COc1cc(O)c2c(c1)C(=O)c1cc(C)cc(O)c1C2=O [Rheochrysidin] | -0.425 | -0.926 | 0.146 | -0.073 |
| CC(C)c1cc(-c2ccc(F)c3ccccc23)nc(N)n1 | -0.445 | -0.998 | -1.75 | -2.07 |
| C[C@]12C=CC(=O)C=C1CC[C@@H]1[C@H]2[C@H](O)C[C@@]2(C)[C@H]1CC[C@@]2(O)C(=O)CO [Prednisolone] | 0.668 | -0.376 | -0.0545 | -0.0386 |
